# Laboratory results published in US20220017599A1.
# Amino acid sequences for entries named in this document (tags omitted).
# UniProt Q8VI36: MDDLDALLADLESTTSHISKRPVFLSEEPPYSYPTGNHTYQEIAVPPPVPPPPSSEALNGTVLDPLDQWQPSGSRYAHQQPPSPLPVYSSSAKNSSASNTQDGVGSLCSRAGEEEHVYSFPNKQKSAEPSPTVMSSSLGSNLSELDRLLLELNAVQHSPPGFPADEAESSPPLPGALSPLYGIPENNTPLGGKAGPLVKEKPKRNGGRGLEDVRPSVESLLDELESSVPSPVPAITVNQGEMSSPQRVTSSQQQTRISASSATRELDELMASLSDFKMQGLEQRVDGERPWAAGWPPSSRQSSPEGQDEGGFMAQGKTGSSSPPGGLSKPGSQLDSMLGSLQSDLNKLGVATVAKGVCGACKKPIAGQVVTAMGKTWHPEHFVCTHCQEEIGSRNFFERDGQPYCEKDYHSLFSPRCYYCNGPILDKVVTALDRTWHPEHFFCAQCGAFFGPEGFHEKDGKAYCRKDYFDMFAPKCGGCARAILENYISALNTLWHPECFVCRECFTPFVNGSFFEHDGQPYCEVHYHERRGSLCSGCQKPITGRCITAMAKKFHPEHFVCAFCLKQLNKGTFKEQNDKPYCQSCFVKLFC
# Changes are numbered by the printed parent chain. Results are given in words; binding and its absence hold for the method and conditions named. Binding seen in cells or lysates may run through a third protein. Some results given as binding are weak or reduced against the parent protein; the word gives no strength.
# What was measured:
# [1] = biological target: T1, α4 tail model protein (WT integrin α4 intracellular domain model protein) (UniProt Q00651); assay: pull-down from T cell lysate by Ni2+ resin loaded with integrin tail model proteins, immunoblot
# T1 sequence (looked up): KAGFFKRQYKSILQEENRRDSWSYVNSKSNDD
# [2] = biological target: T1, α4 tail model protein (WT integrin α4 intracellular domain model protein); assay: pull-down from T cell lysate by Ni2+ resin loaded with WT or mutant α4 tail model proteins, immunoblot
# [3] = biological target: T2, α4 tail model protein R985A (UniProt Q00651); assay: as above
# T2 sequence (looked up): T1 sequence (looked up) with R18A
# [4] = biological target: T1, α4 tail model protein (WT integrin α4 intracellular domain model protein); assay: pull-down of recombinant GST-tagged domain by Ni2+ resin loaded with α4 tail model protein
# [5] = biological target: T1, α4 tail model protein (WT integrin α4 intracellular domain model protein); assay: pull-down of recombinant GST-tagged NTD and CTD by Ni2+ resin loaded with α4 tail model protein (figure legend)
Substance,binding [4],binding [5],further results
murine Hsp90AA1 (from UniProt P07901 2-733),,,binding [1]: binds
murine Hsp90AB1 (from UniProt P11499 2-724),,,binding [1]: binds
paxillin (from UniProt Q8VI36 1-591),,,binding [2]: binds; binding [3]: binds
recombinant GST-tagged C-terminal domain of Hsp90AA1 (from UniProt P07901 566-733),binds,binds,
recombinant GST-tagged C-terminal domain of Hsp90AB1 (from UniProt P11499 557-724),binds,binds,
recombinant GST-tagged N-terminal domain of Hsp90AA1 (from UniProt P07901 1-233),binds,binds,
recombinant GST-tagged N-terminal domain of Hsp90AB1 (from UniProt P08238 1-228),binds,binds,
